According to PubChem BioAssay AID2685 (National Center for Advancing Translational Sciences (NCATS), 2010):
Hit rate of the full screen: of about 320,000 compounds, about 2,100 (0.66%) were called active. The shares of active, inactive and inconclusive entries below differ from those in the screen. Calls follow the shape of the dose curve; as a rule, active = well fitted inhibition curve with a large enough effect in the signal ratio, with a control signal flat (not every such curve was filed as active); inconclusive = small, poorly fitted or top-dose-only effect, or effect the other way, or a change in a side signal; inactive = flat fitted curve, though single readings scatter; the % refers to the signal ratio. Where the call is inconclusive, the potency comes from a doubtful curve fit.

Test: qHTS Assay for Lipid Storage Modulators in Drosophila S3 Cells
Details: BODIPY lipid droplet fluorescence, 18-24 h, cells fed with added oleic acid; lipid storage change, negative = inhibition: at 46.1 µM (top of the series) unless noted
Summary of the method: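 Laser-scanning cytometry quantifies lipid droplet accumulation (500–530 nm total intensity; droplet/cell object ratio) in oleic acid-fed (400 uM added) Drosophila S3 cells treated with a concentration series. 20 uM Triacsin C defined 100% inhibition.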
% is scaled to controls: 0 for no effect and ±100 for the full control effect; potency is read from the fitted curve at half-maximal effect.

Structure (SMILES) | lipid storage change, negative = inhibition | Potency
Cc1ccc(/C=C2\SC(=S)N(CCC(=O)NNC(=O)c3ccccc3O)C2=O)cc1 | inconclusive: -53.9% | –
NC(=O)C1CCN(C(=O)CCNS(=O)(=O)c2cc(Br)cnc2N)CC1 | inconclusive: -99.7% | –
O=C(c1ccco1)N1CCN(C(=O)C2CCN(S(=O)(=O)c3cnc[nH]3)CC2)CC1 | – | inconclusive: 23.1 µM [falling, single point]
COn1c(=O)c(-c2ccc(Cl)cc2)[n+]([O-])c2ccccc21 | inconclusive: -0.866% | –
O=Cc1cccc(Oc2ncccn2)c1 | – | inconclusive: 29.1 µM [falling, single point]
COc1ccc(NC(=O)CCC(=O)c2cc(C)sc2C)cc1 | inconclusive: -27% | –
O=C(CNS(=O)(=O)c1cccc(Br)c1)NCC1CCCCC1 | – | inconclusive: 29.1 µM [activator, single point]
COc1ccc(S(=O)(=O)N(CC(=O)NCc2ccccn2)Cc2ccccc2)cc1 | – | inconclusive: 6.51 µM [activator, single point]
Cc1ccc(C)c(N(CC(=O)NCCC2=CCCCC2)S(C)(=O)=O)c1 | inconclusive: 4.13% | –
Brc1ccc(-c2cnnc(N3CCCC3)n2)cc1 | – | inconclusive: 29.1 µM [activator, single point]
Cc1cc(C)c(C(=O)N2CCCC(CNS(=O)(=O)c3cccs3)C2)o1 (stereo not given) | – | inconclusive: 29.1 µM [activator, single point]
O=C1C=C(NCCN2CCOCC2)CC(c2ccccc2)C1 (stereo not given) | inactive: 27.3% | –
CCc1ccccc1NCc1cc(=O)oc2cc(C)ccc12 | inconclusive: -40.3% | –
Cc1ccc(NC(=O)[C@H](Cc2ccccc2)NC(=O)[C@@H]2Cc3ccccc3CN2)c(C)c1 | – | inconclusive: 4.61 µM [falling, single point]
COc1cccc(-n2c(SCC(N)=O)nc3c([nH]c4ccccc43)c2=O)c1 | – | inconclusive: 3.66 µM [activator, full curve]
CCOCc1cc(CN2CCC(CCC(=O)NC3CC3)CC2)ccc1OC | inconclusive: 32.9% | –
COc1ccc(-c2nnn(CC(=O)N(CCCN3CCOCC3)C(C(=O)NC3CCCC3)c3ccco3)n2)cc1 (stereo not given) | inconclusive: 27.2% | –
COc1ccc2[nH]c3c(=O)n(CCCN4CCOCC4)cnc3c2c1 | inconclusive: -1.53% | –
CCCc1cc(=O)oc2cc(OCC(=O)NC(Cc3c[nH]c4ccc(O)cc34)C(=O)O)c(Cl)cc12 (stereo not given) | inconclusive: 15% | –
Cc1ccc(C2C(C#N)=C(N)Oc3n[nH]c(C)c32)cc1 (stereo not given) | inconclusive: -7.92% | –
CCS(=O)(=O)CCSc1nc(C)cc(C)n1 | inconclusive: -15.2% | –
CCOc1ccc(/C=C(\C#N)C(=O)NCC2CCCO2)cc1OCC (stereo not given) | inconclusive: -34.1% | –
CC1=C(C#N)CCC(=O)N1Cc1c(C)cc(C)cc1C | inconclusive: 7.39% | –
Cn1c(=O)c2[nH]c(SCC(=O)c3ccc(F)cc3)nc2n(C)c1=O | inconclusive: -27.7% | –
COc1ccc2[nH]c(=O)c(CN(Cc3cccs3)C(=S)NCC3CCCO3)cc2c1 (stereo not given) | – | inconclusive: 0.0058 µM [activator, full curve, poor fit]

Structure (SMILES) | lipid storage change, negative = inhibition | Potency
Cc1cc(N2CCCc3ccccc32)n2ncnc2n1 | inconclusive: 35.3% | –
O=C(Cn1nc(C(=O)O)c2ccccc2c1=O)Nc1cc(Cl)cc(Cl)c1 | – | inconclusive: 29.1 µM [falling, single point]
Cc1ccc(NC(=O)c2ccc(C)c(S(=O)(=O)N3CCOCC3)c2)nc1 | – | inconclusive: 0.82 µM [falling, full curve]
O=C(CCNS(=O)(=O)c1ccccc1)OCC(=O)c1ccc(Br)cc1 | inconclusive | –
CN(C)c1ccc(/C=C/C(=O)c2c(O)c3ccccc3oc2=O)cc1 | inconclusive: -38.8% | –
CC(=O)c1c(C)nc2ccc(C)cc2c1-c1ccccc1 | – | inconclusive: 3.66 µM [falling, single point]
O=C(N/C(=C\c1ccc2c(c1)OCO2)C(=O)N1CCOCC1)c1ccccc1Br | – | inconclusive: 0.164 µM [activator, full curve, poor fit]
CCOc1ccc(C(=O)Nc2ccc(-c3cc4ccccc4oc3=O)c(C)c2)cc1[N+](=O)[O-] | inconclusive: 22.3% | –
CC(C)(C)C(=O)COC(=O)c1ccc(O)cc1 | inactive: 8.5% | –
CCN(CC)c1ccc(C(=O)NC(=S)N2CCN(Cc3ccc4c(c3)OCO4)CC2)cc1 | inconclusive: 21.5% | –
CCOC(=O)c1nn(-c2ccc(Cl)cc2)c(=O)c(C#N)c1C | – | inconclusive: 3.66 µM [activator, single point]
O=C(Cc1ccc(Cl)cc1)N1CCOCC1 | inconclusive: -19% | –
Cn1nnnc1Sc1ncnc2scc(-c3ccc(C(F)(F)F)cc3)c12 | – | inconclusive: 0.103 µM [falling, single point]
COC(=O)c1cn(C)c2ccc(S(=O)(=O)N3CCCCC3)cc2c1=O | – | inconclusive: 29.1 µM [rising, single point]
CCc1ccc(OCC(=O)Nc2nnc(C3CCCC3)s2)cc1 | inconclusive: -161% | –
O=C(CC1C(=O)NCCN1C(=O)c1ccc([N+](=O)[O-])cc1)Nc1cccc(Cl)c1 (stereo not given) | inconclusive: 8.11% | –
CCOCCn1c(-c2ccccc2)nc2ccccc21 | inconclusive: 16.1% | –
CCOC(=O)C1CCN(Cc2nc3ccccc3c(=O)n2-c2ccc(OCC)cc2)CC1 | – | inconclusive: 18.4 µM [falling, partial curve, poor fit]
CN1CCC(=NNC(=O)c2cn(-c3ccccc3)nc2-c2ccccc2)CC1 | inconclusive: 31% | –
c1ccc(Cc2nn[nH]n2)cc1 | inconclusive: -35.7% | –
Cc1ccc(S(=O)(=O)N2CCCN(C(=O)OC(C)(C)C)CC2)cc1 | – | inconclusive: 6.51 µM [activator, single point]
COC(=O)COc1ccc(Oc2nc(SC)nc(N(C)C)n2)nn1 | inconclusive: 14% | –
COc1ccc(Oc2coc3cc(OC(=O)/C=C/c4ccc(F)cc4)ccc3c2=O)cc1 | inconclusive: -12.6% | –
Cc1ccc2ncnc(Nc3cccc(C(=O)O)c3)c2c1 | inactive: -2% | –
CN(CC(=O)NCc1ccc(F)cc1)Cc1cccc(Cl)c1 | inconclusive: -155% | –

Structure (SMILES) | lipid storage change, negative = inhibition | Potency
CC(C)NS(=O)(=O)c1ccc(OCC(=O)N2CCc3ccccc3C2)cc1 | inconclusive: -23% | –
Cc1cc(Cl)ccc1OCCCC(=O)Nc1cccnc1 | – | inconclusive: 0.146 µM [activator, full curve]
Cc1nnc(SCCn2c(N3CC(C)CC(C)C3)nc3c2c(=O)n(C)c(=O)n3C)s1 (stereo not given) | inconclusive: -15.4% | –
O=c1cc(-c2ccccc2)cc(-c2ccccc2)n1O | inconclusive: 14.3% | –
CC(=O)c1ccc(OCCn2cnc3ccccc32)cc1 | inconclusive: 25.3% | –
Cc1ccc(NC(=O)CCc2nnc3ccc(NCc4ccco4)nn23)nc1 | – | inconclusive: 13 µM [falling, partial curve, poor fit]
C(=N\Nc1nc2ccccc2s1)/c1cccs1 | inconclusive: -0.707% | –
COCCCN1CC(=O)N2C(c3ccc(OC)c(OC)c3)c3[nH]c4ccccc4c3C[C@H]2C1=O (stereo not given in full) | inconclusive: 11% | –
Cc1cccc(C)c1OCC(=O)Nc1ccc2c(c1)C(=O)NC2=O | – | inconclusive: 29.1 µM [falling, single point]
CC(=O)N1CCN(CCN=CC2=C(O)CC(c3cccs3)CC2=O)CC1 (stereo not given) | – | active: 20.6 µM
CC(=O)c1c(C)[nH]c(C(=O)Nc2ccccn2)c1C | – | active: 29.1 µM
Cc1ccc(S(=O)(=O)n2nc(C)c(C#N)c2N)cc1 | – | inconclusive: 29.1 µM [activator, single point]
Cc1cccnc1CC(C)NC(=O)c1cc(COc2cncc(Cl)c2)on1 (stereo not given) | – | inconclusive: 29.1 µM [falling, single point]
NC(=O)c1ccc(NC(=O)COC(=O)c2c3c(nc4ccccc24)/C(=C\c2ccc4c(c2)OCO4)CCC3)cc1 | – | inconclusive: 16.4 µM [falling, single point]
O=C(COC(=O)c1ccccc1NC(=O)c1ccco1)Nc1ccc2c(c1)OCO2 | inconclusive: 0.418% | –
O=[N+]([O-])c1nn(-c2ccc3c(c2)OCCO3)n(O)c1=Nc1ccccc1 | – | inconclusive: 36.6 µM [falling, partial curve, poor fit]
COC(=O)c1sc(N2C(=O)C(O)=C(C(=O)c3ccc(C)o3)C2c2ccc([N+](=O)[O-])cc2)nc1C (stereo not given) | inconclusive: 113% | –
CC1(NC(=O)Nc2cccc3ccccc23)CCS(=O)(=O)C1 (stereo not given) | – | inconclusive: 29.1 µM [activator, single point]
Cn1c(=O)n(C)c2cc([N+](=O)[O-])c(N3CCN(C(=O)c4cccc(Cl)c4)CC3)cc21 | inconclusive: -21.7% | –
Cc1sc(NC(=O)CN2CCN(c3ccccn3)CC2)c(C#N)c1C | inconclusive: 5.27% | –
CC1CCN(C(=O)CCN2C(=O)/C(=C/c3cccs3)SC2=S)CC1 | – | inconclusive: 29.1 µM [falling, single point]
CCC(C)(C)C1CCC2(CC1)NC(=O)N(CC(=O)NC(C)CCc1ccccc1)C2=O (stereo not given) | inconclusive | –
Cc1cc(C)n2nc(SCCCC(=O)c3ccc(F)cc3)nc2n1 | inconclusive: 27.4% | –
CC1CN(c2nc(Nc3ccccc3)nc(N)c2[N+](=O)[O-])CC(C)O1 (stereo not given) | inconclusive: -20.1% | –
CCN(CC)CCn1c(NC(=O)c2ccccc2O)nc2ccccc21 | – | inconclusive: 29.1 µM [falling, single point]

Copied from the list:
Potency, O=C(Cn1nc(C(=O)O)c2ccccc2c1=O)Nc1cc(Cl)cc(Cl)c1 reads inconclusive: 29.1 µM [falling, single point]
Potency, O=[N+]([O-])c1nn(-c2ccc3c(c2)OCCO3)n(O)c1=Nc1ccccc1 reads inconclusive: 36.6 µM [falling, partial curve, poor fit]
Potency, CC(=O)c1c(C)[nH]c(C(=O)Nc2ccccn2)c1C reads active: 29.1 µM
